Experimental data reported in PMC13391367.
No constants are given. Whether binding was seen depends on the method and setting. Binding seen in cells or lysates may run through a third protein. Some binding calls cover weakened binding; strength is not graded here.

Sequences of proteins named here, by UniProt entry; tags and fusion partners are left off.
UniProt Q5JVF3: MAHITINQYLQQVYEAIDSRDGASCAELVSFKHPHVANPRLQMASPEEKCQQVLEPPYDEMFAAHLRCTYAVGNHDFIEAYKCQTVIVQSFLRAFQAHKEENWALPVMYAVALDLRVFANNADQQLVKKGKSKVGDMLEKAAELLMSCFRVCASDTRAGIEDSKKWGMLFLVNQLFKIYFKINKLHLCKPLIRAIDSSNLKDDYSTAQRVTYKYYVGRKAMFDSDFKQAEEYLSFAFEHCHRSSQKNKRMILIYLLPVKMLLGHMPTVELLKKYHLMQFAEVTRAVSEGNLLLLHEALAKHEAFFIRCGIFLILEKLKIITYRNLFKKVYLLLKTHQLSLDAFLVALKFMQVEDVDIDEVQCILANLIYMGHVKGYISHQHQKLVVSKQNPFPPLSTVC

Molecular target: PCID2–3×Flag (endogenously tagged) (human (endogenous in HeLa)) (UniProt Q5JVF3)
Assay: co-IP; low-stringency anti-Flag IP from extracts of endogenously 3×Flag-tagged HeLa lines, western blot with GANP-, ZFC3H1-, MTR4-, EXOSC10-, PCID2- and Flag-specific antibodies

B1: EXOSC10 (endogenous exosome component) (protein, UniProt Q01780 1-885)
chain: MAPPSTREPRVLSATSATKSDGEMVLPGFPDADSFVKFALGSVVAVTKASGGLPQFGDEYDFYRSFPGFQAFCETQGDRLLQCMSRVMQYHGCRSNIKDRSKVTELEDKFDLLVDANDVILERVGILLDEASGVNKNQQPVLPAGLQVPKTVVSSWNRKAAEYGKKAKSETFRLLHAKNIIRPQLKFREKIDNSNTPFLPKIFIKPNAQKPLPQALSKERRERPQDRPEDLDVPPALADFIHQQRTQQVEQDMFAHPYQYELNHFTPADAVLQKPQPQLYRPIEETPCHFISSLDELVELNEKLLNCQEFAVDLEHHSYRSFLGLTCLMQISTRTEDFIIDTLELRSDMYILNESLTDPAIVKVFHGADSDIEWLQKDFGLYVVNMFDTHQAARLLNLGRHSLDHLLKLYCNVDSNKQYQLADWRIRPLPEEMLSYARDDTHYLLYIYDKMRLEMWERGNGQPVQLQVVWQRSRDICLKKFIKPIFTDESYLELYRKQKKHLNTQQLTAFQLLFAWRDKTARREDESYGYVLPNHMMLKIAEELPKEPQGIIACCNPVPPLVRQQINEMHLLIQQAREMPLLKSEVAAGVKKSGPLPSAERLENVLFGPHDCSHAPPDGYPIIPTSGSVPVQKQASLFPDEKEDNLLGTTCLIATAVITLFNEPSAEDSKKGPLTVAQKKAQNIMESFENPFRMFLPSLGHRAPVSQAAKFDPSTKIYEISNRWKLAQVQVQKDSKEAVKKKAAEQTAAREQAKEACKAAAEQAISVRQQVVLENAAKKRERATSDPRTTEQKQEKKRLKISKKPKDPEPPEKEFTPYDYSQSDFKAFAGNSKSKVSSQFDPNKQTPSGKKCIAAKKIKQSVGNKSMSFPTGKSDRGFRYNWPQR
For B1, the binding was “binds”.
